This is an account of results in article doi:10.1101/2023.04.13.536796.

The chains behind the UniProt entries cited, without tags or fusion partners. Residues count along the entry.
UniProt Q9UBV2, residues 22-794: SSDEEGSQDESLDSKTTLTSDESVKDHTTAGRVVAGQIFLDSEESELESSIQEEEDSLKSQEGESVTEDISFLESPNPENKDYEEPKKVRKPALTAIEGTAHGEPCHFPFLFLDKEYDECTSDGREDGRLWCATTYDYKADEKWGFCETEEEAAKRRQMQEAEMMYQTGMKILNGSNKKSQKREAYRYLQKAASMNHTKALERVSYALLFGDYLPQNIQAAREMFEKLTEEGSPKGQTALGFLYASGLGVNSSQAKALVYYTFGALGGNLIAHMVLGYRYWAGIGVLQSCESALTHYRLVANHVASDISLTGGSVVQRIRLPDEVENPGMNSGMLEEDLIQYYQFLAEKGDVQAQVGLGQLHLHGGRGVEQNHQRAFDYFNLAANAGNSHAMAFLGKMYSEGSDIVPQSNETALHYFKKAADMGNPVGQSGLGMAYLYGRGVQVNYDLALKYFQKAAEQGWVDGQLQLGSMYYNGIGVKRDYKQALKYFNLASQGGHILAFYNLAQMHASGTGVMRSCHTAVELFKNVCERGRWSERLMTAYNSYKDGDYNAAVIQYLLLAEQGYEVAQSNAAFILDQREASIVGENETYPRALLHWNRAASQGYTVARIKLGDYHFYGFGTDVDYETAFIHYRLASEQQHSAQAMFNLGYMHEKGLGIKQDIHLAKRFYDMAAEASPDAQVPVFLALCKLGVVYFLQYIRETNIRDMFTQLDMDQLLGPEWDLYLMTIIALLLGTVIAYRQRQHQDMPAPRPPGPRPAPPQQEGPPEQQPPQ
UniProt Q86TM6: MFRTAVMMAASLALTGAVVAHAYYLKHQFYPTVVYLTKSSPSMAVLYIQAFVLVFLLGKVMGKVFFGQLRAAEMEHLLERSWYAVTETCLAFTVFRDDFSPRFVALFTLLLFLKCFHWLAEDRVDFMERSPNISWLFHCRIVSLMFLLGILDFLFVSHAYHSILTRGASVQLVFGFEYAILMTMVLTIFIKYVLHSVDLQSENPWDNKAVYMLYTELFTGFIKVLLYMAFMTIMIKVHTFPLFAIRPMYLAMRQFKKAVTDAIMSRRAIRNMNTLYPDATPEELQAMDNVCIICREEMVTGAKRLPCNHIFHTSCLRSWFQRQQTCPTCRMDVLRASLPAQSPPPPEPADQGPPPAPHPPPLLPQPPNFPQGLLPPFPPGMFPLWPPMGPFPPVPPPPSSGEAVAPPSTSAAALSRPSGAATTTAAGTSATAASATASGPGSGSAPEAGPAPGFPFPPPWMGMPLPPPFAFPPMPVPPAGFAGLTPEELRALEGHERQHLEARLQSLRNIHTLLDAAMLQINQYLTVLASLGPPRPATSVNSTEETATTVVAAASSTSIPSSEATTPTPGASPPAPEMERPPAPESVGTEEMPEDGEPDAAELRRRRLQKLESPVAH

Results are given in words; binding and its absence hold for the method and conditions named. In cells and extracts the contact can be indirect. Here binding means that the protein was enriched with, or labelled near, the bait; the list need not be complete.

Assay in all cases: affinity purification with mass spectrometry
Test [1] deals with SEL1L (suppressor of lin-12-like), endogenous (human (endogenous in HEK293T)) (UniProt Q9UBV2).
Test [2] concerns the target HRD1 (HMG-CoA reductase degradation 1), endogenous (human (endogenous in HEK293T)) (UniProt Q86TM6).
The target of test [3] is HRD1 (HMG-CoA reductase degradation 1), endogenous (human (endogenous in HEK293T)), Q86TM6. Particulars: remark: other sources report otherwise.

B1: UBE2J1, endogenous (enzyme, UniProt Q9Y385 1-318)
chain: METRYNLKSPAVKRLMKEAAELKDPTDHYHAQPLEDNLFEWHFTVRGPPDSDFDGGVYHGRIVLPPEYPMKPPSIILLTANGRFEVGKKICLSISGHHPETWQPSWSIRTALLAIIGFMPTKGEGAIGSLDYTPEERRALAKKSQDFCCEGCGSAMKDVLLPLKSGSDSSQADQEAKELARQISFKAEVNSSGKTISESDLNHSFSLTDLQDDIPTTFQGATASTSYGLQNSSAASFHQPTQPVAKNTSMSPRQRRAQQQSQRRLSTSPDVIQGHQPRDNHTDHGGSAVLIVILTLALAALIFRRIYLANEYIFDFEL
Regarding B1, in test [1], the binding result is listed as “binds”.

B2: ABCD3, endogenous (protein, UniProt P28288 1-659)
chain: MAAFSKYLTARNSSLAGAAFLLLCLLHKRRRALGLHGKKSGKPPLQNNEKEGKKERAVVDKVFFSRLIQILKIMVPRTFCKETGYLVLIAVMLVSRTYCDVWMIQNGTLIESGIIGRSRKDFKRYLLNFIAAMPLISLVNNFLKYGLNELKLCFRVRLTKYLYEEYLQAFTYYKMGNLDNRIANPDQLLTQDVEKFCNSVVDLYSNLSKPFLDIVLYIFKLTSAIGAQGPASMMAYLVVSGLFLTRLRRPIGKMTITEQKYEGEYRYVNSRLITNSEEIAFYNGNKREKQTVHSVFRKLVEHLHNFILFRFSMGFIDSIIAKYLATVVGYLVVSRPFLDLSHPRHLKSTHSELLEDYYQSGRMLLRMSQALGRIVLAGREMTRLAGFTARITELMQVLKDLNHGKYERTMVSQQEKGIEGVQVIPLIPGAGEIIIADNIIKFDHVPLATPNGDVLIRDLNFEVRSGANVLICGPNGCGKSSLFRVLGELWPLFGGRLTKPERGKLFYVPQRPYMTLGTLRDQVIYPDGREDQKRKGISDLVLKEYLDNVQLGHILEREGGWDSVQDWMDVLSGGEKQRMAMARLFYHKPQFAILDECTSAVSVDVEGYIYSHCRKVGITLFTVSHRKSLWKHHEYYLHMDGRGNYEFKQITEDTVEFGS
Consider B2, for which the binding result in test [2] is “binds”.

B3: OS9 (Osteosarcoma amplified 9), endogenous (protein, UniProt Q13438 26-667)
chain: GGVGSLNLEELSEMRYGIEILPLPVMGGQSQSSDVVIVSSKYKQRYECRLPAGAIHFQREREEETPAYQGPGIPELLSPMRDAPCLLKTKDWWTYEFCYGRHIQQYHMEDSEIKGEVLYLGYYQSAFDWDDETAKASKQHRLKRYHSQTYGNGSKCDLNGRPREAEVRFLCDEGAGISGDYIDRVDEPLSCSYVLTIRTPRLCPHPLLRPPPSAAPQAILCHPSLQPEEYMAYVQRQADSKQYGDKIIEELQDLGPQVWSETKSGVAPQKMAGASPTKDDSKDSDFWKMLNEPEDQAPGGEEVPAEEQDPSPEAADSASGAPNDFQNNVQVKVIRSPADLIRFIEELKGGTKKGKPNIGQEQPVDDAAEVPQREPEKERGDPERQREMEEEEDEDEDEDEDEDERQLLGEFEKELEGILLPSDRDRLRSEVKAGMERELENIIQETEKELDPDGLKKESERDRAMLALTSTLNKLIKRLEEKQSPELVKKHKKKRVVPKKPPPSPQPTEEDPEHRVRVRVTKLRLGGPNQDLTVLEMKRENPQLKQIEGLVKELLEREGLTAAGKIEIKIVRPWAEGTEEGARWLTDEDTRNLKEIFFNILVPGAEEAQKERQRQKELESNYRRVWGSPGGEGTGDLDEFDF
Regarding B3, the binding entry in test [1] is recorded as “binds”.

B4: FAM8A1 (Family with sequence similarity 8 member A1), endogenous (protein, UniProt Q9UBU6 1-413)
chain: MAEGPEEARGHPPGQDDGGGDHEPVPSLRGPPTTAVPCPRDDPQAEPQAPGRPTAPGLAAAAAADKLEPPRELRKRGEAASGSGAELQEQAGCEAPEAAAPRERPARLSAREYSRQVHEWLWQSYCGYLTWHSGLAAFPAYCSPQPSPQSFPSGGAAVPQAAAPPPPQLGYYNPFYFLSPGAAGPDPRTAAGISTPAPVAGLGPRAPHVQASVRATPVTRVGSAAPSRSPSETGRQAGREYVIPSLAHRFMAEMVDFFILFFIKATIVLSIMHLSGIKDISKFAMHYIIEEIDEDTSMEDLQKMMVVALIYRLLVCFYEIICIWGAGGATPGKFLLGLRVVTCDTSVLIAPSRVLVIPSSNVSITTSTIRALIKNFSIASFFPAFITLLFFQHNRTAYDIVAGTIVVKRNGVR
Take B4: the binding entry in test [1] and in test [2] was “binds” each time.

B5: HERP1 (Homocysteine-induced ER protein 1), endogenous (protein, UniProt Q15011 1-391)
chain: MESETEPEPVTLLVKSPNQRHRDLELSGDRGWSVGHLKAHLSRVYPERPRPEDQRLIYSGKLLLDHQCLRDLLPKQEKRHVLHLVCNVKSPSKMPEINAKVAESTEEPAGSNRGQYPEDSSSDGLRQREVLRNLSSPGWENISRPEAAQQAFQGLGPGFSGYTPYGWLQLSWFQQIYARQYYMQYLAATAASGAFVPPPSAQEIPVVSAPAPAPIHNQFPAENQPANQNAAPQVVVNPGANQNLRMNAQGGPIVEEDDEINRDWLDWTYSAATFSVFLSILYFYSSLSRFLMVMGATVVMYLHHVGWFPFRPRPVQNFPNDGPPPDVVNQDPNNNLQEGTDPETEDPNHLPPDRDVLDGEQTSPSFMSTAWLVFKTFFASLLPEGPPAIAN
In the case of B5, the binding result in test [1] is on record as “binds”.

B6: HERP1 (Homocysteine-induced ER protein 1), endogenous, Q15011 1-391 (protein)
chain: B5 chain
B6: in test [3], the binding entry was “binds”.
